## Primary screen of a compound library

Mtb growth Cornell: 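Whole-cell assay for inhibitors of Mycobacterium tuberculosis growth, labelled Cornell in the record; the read-out is not stated. The concentration is filed as 10 mM, unlikely as a test dose, so the dose is not known. The record gives no direction; compounds strong in two other growth screens of this library score well above the rest, so higher reads as stronger inhibition. Size under these conditions: about 53,000 compounds, about 900 of them at 50% or above in at least one test.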
Mtb heat-shock: 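Assay on Mycobacterium tuberculosis, filed only as a heat shock assay from Cornell; the read-out is not stated. The concentration is filed as 10 mM, unlikely as a test dose, so the dose is not known. Higher reads as stronger inhibition (inferred: compounds with an IC50 in retests scored well above the rest). Size under these conditions: about 69,000 compounds, about 930 of them at 50% or above in at least one test.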

Each number is a percent effect as filed.
The controls that fix the scale are not given in the record; negative values are as filed.
This is an unselected part of the compounds tested.

- CC(NC1(CNS(C)(=O)=O)CCOCC1)c1ccccc1 (configuration not stated) | Mtb growth Cornell: 12.45%; Mtb heat-shock: 2.771%
- Cn1ccc(C(=O)NC2CCC23CCN(Cc2cccnc2)CC3)c1.O=C(O)C(F)(F)F.O=C(O)C(F)(F)F (configuration not stated) | Mtb growth Cornell: 20.9%; Mtb heat-shock: 0.4103%
- CN1CCC2(CCN(CC3CC3)CC2)C1=O.O=C(O)C(F)(F)F | Mtb growth Cornell: 7.761%; Mtb heat-shock: -9.167%
- Cc1cc(CN2CCCCC2Cn2cncn2)no1 (configuration not stated) | Mtb heat-shock: 9.769%
- Cc1cc2c(N3CCC(N(C)Cc4nccs4)CC3)ncnc2s1 | Mtb growth Cornell: -14.81%; Mtb heat-shock: -31.32%
- Cc1cc(C)n(C2CN(CC(=O)N(C)Cc3ccc(C)o3)C2)n1 | Mtb growth Cornell: 9.29%; Mtb heat-shock: 8.951%
- CCOCCN1Cc2cnn(C)c2C(COCC)C1.O=C(O)C(F)(F)F.O=C(O)C(F)(F)F (configuration not stated) | Mtb growth Cornell: -33.55%; Mtb heat-shock: 4.99%
- Cc1ccc(N2CCCC3(CCCC(=O)N3)C2)nn1.O=C(O)C(F)(F)F (configuration not stated) | Mtb growth Cornell: 21.11%; Mtb heat-shock: -22.83%
- CS(=O)(=O)NCc1ncn2c1CN(C(=O)C1CCCCC1)CCC2 | Mtb growth Cornell: -2.366%; Mtb heat-shock: -5.81%
- CS(=O)(=O)NCC(=O)NC1(c2ccc(Cl)c(Cl)c2)CC1 | Mtb growth Cornell: 10.53%; Mtb heat-shock: 22.29%
- CC(=O)c1cnc(NCCN2CCCC(c3ccccc3)C2)nc1C (configuration not stated) | Mtb growth Cornell: -11.97%; Mtb heat-shock: 0.3695%
- Cn1nccc1-c1ccc2nc(C3CCN(CC4CC4)CC3)nn2c1.O=C(O)C(F)(F)F.O=C(O)C(F)(F)F | Mtb growth Cornell: -10.01%; Mtb heat-shock: -21.13%
- Cc1n[nH]c(C)c1C1COCCN1C(=O)c1ccccc1 (configuration not stated) | Mtb growth Cornell: -4.06%; Mtb heat-shock: -12%
- COc1c(C2CCCN2Cc2nnc(C3CC3)n2C)c(C)nn1C (configuration not stated) | Mtb heat-shock: -0.7561%
- Cc1cccnc1CNCC1(O)CCCN(CC2CCCCC2)C1=O (configuration not stated) | Mtb growth Cornell: -0.3775%; Mtb heat-shock: -5.959%
- CN(C)C(C(=O)N1CCN(CC(F)(F)F)CC1)c1ccccc1F (configuration not stated) | Mtb growth Cornell: 14.37%; Mtb heat-shock: -18.68%
- O=S(=O)(c1ccccc1)N1CCC2(CCCN2Cc2cccc(F)c2)C1 (configuration not stated) | Mtb growth Cornell: 5.302%; Mtb heat-shock: 8.604%
- COc1c(Br)cccc1CCNC(=O)c1csnn1 | Mtb growth Cornell: 48.82%; Mtb heat-shock: 16.06%
- Cc1ocnc1C(=O)Nc1ccc(-c2nnc(N(C)C)o2)cc1 | Mtb growth Cornell: 13.41%; Mtb heat-shock: -1.75%
- CCOC1(C)C(=O)c2ccccc2N1Nc1ccccc1C(=O)CC (configuration not stated) | Mtb growth Cornell: 6.963%; Mtb heat-shock: 4.99%
- COc1ccc(CNC(=O)NC2CCC(O)CC2)c(C(F)(F)F)c1 (configuration not stated) | Mtb growth Cornell: 16.68%; Mtb heat-shock: 14.76%
- CC(C)c1nc2n(n1)CC(NCc1nnc(C(C)C)o1)CC2 (configuration not stated) | Mtb growth Cornell: 6.865%; Mtb heat-shock: 2.17%
- Cc1cc(C)n(Cc2cc(C(=O)N[C@H]3CCCCNC3=O)n[nH]2)n1 | Mtb growth Cornell: 8.317%; Mtb heat-shock: 11.05%
- O=S(=O)(N1CCOCC1)N1CCCCC1CCn1cccn1 (configuration not stated) | Mtb growth Cornell: -5.073%; Mtb heat-shock: 1.097%
- CCCc1csc(-c2ccc(S(C)(=O)=O)cc2)n1 | Mtb growth Cornell: 41.64%; Mtb heat-shock: 4.3%
- COCCN(CC1CC1)c1nc(CCN)nc2ccccc12 | Mtb growth Cornell: 34.27%; Mtb heat-shock: -2.272%
- Cn1c(CS(=O)(=O)Cc2ccc(Cl)cc2)cc(=O)n(C)c1=O | Mtb growth Cornell: -20.96%; Mtb heat-shock: 25.48%
- O=C(Cc1ccccn1)N1CCc2c(O)nc(-c3cnccn3)nc2C1 | Mtb growth Cornell: -9.37%; Mtb heat-shock: -16.67%
- CN(C)CCN1CCCC12CCCN(Cc1ccco1)C2.O=C(O)C(F)(F)F.O=C(O)C(F)(F)F.O=C(O)C(F)(F)F (configuration not stated) | Mtb growth Cornell: -37.73%; Mtb heat-shock: -19.36%
- c1cncc(-c2ccnn2CN2CCC3(CC2)OCCO3)c1 | Mtb heat-shock: -14.89%
- CC(=O)Nc1nc(C(=O)N2CCCC(n3nc(C)cc3C)C2)cs1 (configuration not stated) | Mtb growth Cornell: 3.944%; Mtb heat-shock: -4.194%
- CN(c1ncnc2c1CCC2)C1CCCN(c2cccnn2)C1 (configuration not stated) | Mtb growth Cornell: 6.651%; Mtb heat-shock: -17.38%
- COC(=O)Cn1c(C)cc(=O)n2nc(-c3cccs3)nc12 | Mtb growth Cornell: -3.318%; Mtb heat-shock: -5.001%
- O=C(O)C(F)(F)F.[H][C@]12CCC[C@@H](CNc3ccccn3)[C@@]1([H])CN(Cc1nccs1)C2 | Mtb growth Cornell: -19.78%; Mtb heat-shock: -2.364%
- COC1CCN(C(=O)C2CC(=O)N(c3ccccc3Br)C2)CC1 (configuration not stated) | Mtb growth Cornell: 13.61%; Mtb heat-shock: 5.938%
- O=C1CCC2(CCN(c3ncc(F)cn3)CC2)N1CCN1CCCC1 | Mtb growth Cornell: -5.355%; Mtb heat-shock: -13.01%
- CCc1ccc(OCC(=O)N2CCN(CC)CC2)cc1 | Mtb growth Cornell: 9.625%; Mtb heat-shock: 0.01882%
- Cc1ccc(S(=O)(=O)n2ccn(C(=O)COc3ccccc3)c2=O)cc1 | Mtb growth Cornell: 10.34%; Mtb heat-shock: 13.05%
- Cc1cc(-c2cnc(NC3CCCC3)nc2-c2ccco2)on1 | Mtb growth Cornell: 78.21%; Mtb heat-shock: 18.83%
- COCC(=O)N1CCc2nc(NC(C)C)nc(NC(C)C)c2CC1 | Mtb growth Cornell: -21.47%; Mtb heat-shock: 17.88%
- CCN(CC)C(=O)CS(=O)(=O)c1cc(OC)c(OC)cc1C | Mtb growth Cornell: -5.263%; Mtb heat-shock: 15.6%
- CCC(C)N(Cc1sccc1C)C(=O)c1cnc[nH]1 (configuration not stated) | Mtb heat-shock: -31.95%
- CCOC(=O)c1cnn(-c2cc(C)ccn2)c1N | Mtb growth Cornell: -1.307%; Mtb heat-shock: -3.938%
- CCOC(=O)c1sc2ccsc2c1CNC(=O)COC | Mtb heat-shock: -11.27%
- Cc1nc(N(CCC(N)=O)Cc2ccccc2)c2nc(C)oc2n1 | Mtb growth Cornell: 8.904%; Mtb heat-shock: -27.41%
- NC(=O)CC1CCCN(c2cncc(OCc3ccccc3)n2)C1 (configuration not stated) | Mtb growth Cornell: -6.261%; Mtb heat-shock: 0.1848%
- Cn1ccnc1CN1CCCC1CCc1ccccc1 (configuration not stated) | Mtb growth Cornell: -16.28%; Mtb heat-shock: -17.63%

Repeated from the top, 3 entries:

{"smiles": "CC(NC1(CNS(C)(=O)=O)CCOCC1)c1ccccc1", "stereo": "configuration not stated", "Mtb growth Cornell": 12.45, "Mtb heat-shock": 2.771}
{"smiles": "Cn1ccc(C(=O)NC2CCC23CCN(Cc2cccnc2)CC3)c1.O=C(O)C(F)(F)F.O=C(O)C(F)(F)F", "stereo": "configuration not stated", "Mtb growth Cornell": 20.9, "Mtb heat-shock": 0.4103}
{"smiles": "CN1CCC2(CCN(CC3CC3)CC2)C1=O.O=C(O)C(F)(F)F", "Mtb growth Cornell": 7.761, "Mtb heat-shock": -9.167}

Data taken from ChEMBL document CHEMBL3988442, “University of Dundee, Small-Polar-MMV Screening Library” (2021).